Reference: publication PMC6345853
Results are given in words; binding and its absence hold for the method and conditions named. Binding seen in cells or lysates may run through a third protein. Binding can be weak; no strength is given. Where a sequence is shown, tags or fusion partners need not be part of it.

Target: Fg-Usp7-ΔMATH (Drosophila)
Assay: co-IP; S2 cells transfected with tagged constructs, harvested 48 h after transfection, IP and immunoblot; in some panels with co-expressed Hpo, Hpo-KD, Wts or Wts-KD

B1: Myc-Yki (protein, UniProt Q45VV3 1-395)
chain: MLTTMSASSNTNSLIEKEIDDEDMLSPIKSNNLVVRVNQDTDDNLQALFDSVLNPGDAKRPLQLPLRMRKLPNSFFTPPAPSHSRANSADSTYDAGSQSSINIGNKASIVQQPDGQSPIAAIPQLQIQPSPQHSRLAIHHSRARSSPASLQQNYNVRARSDAAAANNPNANPSSQQQPAGPTFPENSAQEFPSGAPASSAIDLDAMNTCMSQDIPMSMQTVHKKQRSYDVISPIQLNRQLGALPPGWEQAKTNDGQIYYLNHTTKSTQWEDPRIQYRQQQQILMAERIKQNDVLQTTKQTTTSTIANNLGPLPDGWEQAVTESGDLYFINHIDRTTSWNDPRMQSGLSVLDCPDNLVSSLQIEDNLCSNLFNDAQAIVNPPSSHKPDDLEWYKIN
B1 was tested, and the binding was “binds”.
